Test results reported in PMC8210318.
These are yes or no findings as the source states them, for the method shown.

Protein sequences, listed by entry. Tags and fused reporters are not part of them.
UniProt P0AGE0: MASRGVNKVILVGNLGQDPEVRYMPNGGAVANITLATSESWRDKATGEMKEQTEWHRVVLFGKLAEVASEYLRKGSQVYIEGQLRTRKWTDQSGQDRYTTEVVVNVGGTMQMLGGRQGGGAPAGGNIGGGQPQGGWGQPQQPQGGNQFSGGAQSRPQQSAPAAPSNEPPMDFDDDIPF

B1: N-HelQ, N-terminal HelQ fragment (amino acids 1-240) (domain or fragment, UniProt Q8TDG4 1-240)
chain: MDECGSRIRRRVSLPKRNRPSLGCIFGAPTAAELVPGDEGKEEEEMVAENRRRKTAGVLPVEVQPLLLSDSPECLVLGGGDTNPDLLRHMPTDRGVGDQPNDSEVDMFGDYDSFTENSFIAQVDDLEQKYMQLPEHKKHATDFATENLCSESIKNKLSITTIGNLTELQTDKHTENQSGYEGVTIEPGADLLYDVPSSQAIYFENLQNSSNDLGDHSMKERDWKSSSHNTVNEELPHNCI
B2: HelQ helicase, full length, human (enzyme, UniProt Q8TDG4 1-1101)
chain: MDECGSRIRRRVSLPKRNRPSLGCIFGAPTAAELVPGDEGKEEEEMVAENRRRKTAGVLPVEVQPLLLSDSPECLVLGGGDTNPDLLRHMPTDRGVGDQPNDSEVDMFGDYDSFTENSFIAQVDDLEQKYMQLPEHKKHATDFATENLCSESIKNKLSITTIGNLTELQTDKHTENQSGYEGVTIEPGADLLYDVPSSQAIYFENLQNSSNDLGDHSMKERDWKSSSHNTVNEELPHNCIEQPQQNDESSSKVRTSSDMNRRKSIKDHLKNAMTGNAKAQTPIFSRSKQLKDTLLSEEINVAKKTVESSSNDLGPFYSLPSKVRDLYAQFKGIEKLYEWQHTCLTLNSVQERKNLIYSLPTSGGKTLVAEILMLQELLCCRKDVLMILPYVAIVQEKISGLSSFGIELGFFVEEYAGSKGRFPPTKRREKKSLYIATIEKGHSLVNSLIETGRIDSLGLVVVDELHMIGEGSRGATLEMTLAKILYTSKTTQIIGMSATLNNVEDLQKFLQAEYYTSQFRPVELKEYLKINDTIYEVDSKAENGMTFSRLLNYKYSDTLKKMDPDHLVALVTEVIPNYSCLVFCPSKKNCENVAEMICKFLSKEYLKHKEKEKCEVIKNLKNIGNGNLCPVLKRTIPFGVAYHHSGLTSDERKLLEEAYSTGVLCLFTCTSTLAAGVNLPARRVILRAPYVAKEFLKRNQYKQMIGRAGRAGIDTIGESILILQEKDKQQVLELITKPLENCYSHLVQEFTKGIQTLFLSLIGLKIATNLDDIYHFMNGTFFGVQQKVLLKEKSLWEITVESLRYLTEKGLLQKDTIYKSEEEVQYNFHITKLGRASFKGTIDLAYCDILYRDLKKGLEGLVLESLLHLIYLTTPYDLVSQCNPDWMIYFRQFSQLSPAEQNVAAILGVSESFIGKKASGQAIGKKVDKNVVNRLYLSFVLYTLLKETNIWTVSEKFNMPRGYIQNLLTGTASFSSCVLHFCEELEEFWVYRALLVELTKKLTYCVKAELIPLMEVTGVLEGRAKQLYSAGYKSLMHLANANPEVLVRTIDHLSRRQAKQIVSSAKMLLHEKAEALQEEVEELLRLPSDFPGAVASSTDKA

Experiments:
[1] = target: N-HelQ, N-terminal HelQ fragment (amino acids 1-240) (human) (UniProt Q8TDG4); experiment: AUC; analytical ultra-centrifugation of N-HelQ, mean mass over three conditions; both purified
[2] = target: E. coli SSB (E. coli) (UniProt P0AGE0); experiment: native gel or EMSA; super-shift EMSA: RPA (or E. coli SSB) pre-incubated with fork-2 DNA (25 nM) at 37°C, then HelQ or N-HelQ added; buffer HB (10 mM Tris pH 7.5, 50 ug/ml BSA, 5% glycerol), 25 mM DTT; 5% acrylamide TBE gel; both purified

| Binder | binding [1] | binding [2] |
| --- | --- | --- |
| B1 | no binding | – |
| B2 | – | no binding |
